The source of these data is paper PMC8104389.

Protein sequences, listed by entry. Tags and fused reporters are not part of them.
UniProt O09106: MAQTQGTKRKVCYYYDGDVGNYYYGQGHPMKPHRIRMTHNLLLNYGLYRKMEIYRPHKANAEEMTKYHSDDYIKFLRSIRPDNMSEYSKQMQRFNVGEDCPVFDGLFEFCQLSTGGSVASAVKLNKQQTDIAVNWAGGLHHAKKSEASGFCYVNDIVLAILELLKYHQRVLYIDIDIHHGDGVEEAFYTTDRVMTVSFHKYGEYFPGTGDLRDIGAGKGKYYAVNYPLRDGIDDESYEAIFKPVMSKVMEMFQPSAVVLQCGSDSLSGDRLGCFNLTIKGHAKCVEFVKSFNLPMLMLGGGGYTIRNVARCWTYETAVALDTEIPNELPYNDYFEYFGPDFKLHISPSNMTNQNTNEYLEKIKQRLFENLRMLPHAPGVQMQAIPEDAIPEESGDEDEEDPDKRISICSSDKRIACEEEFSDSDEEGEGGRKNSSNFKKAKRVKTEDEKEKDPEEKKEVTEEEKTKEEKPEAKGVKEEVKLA

No constants are given. Whether binding was seen depends on the method and setting. Binding seen in cells or lysates may run through a third protein. Some entries that bind do so weakly or less than the wild type.

The test addresses histone deacetylase 1 (HDAC1), endogenous in mouse testis (mouse (endogenous in testis)) (UniProt O09106). Briefly: co-IP; testis lysate; IP with an anti-HDAC1 antibody, immunoblot for KCTD19; NP40 lysis buffer, 1 h at 4°C. A general note: In western blotting, separated proteins are transferred to a membrane and probed.

B1: potassium channel tetramerization domain containing 19 (KCTD19), endogenous in mouse testis (protein, UniProt Q562E2-2 1-950)
chain: MEEPGGLHESAEDLFHFNVGGWHFSVPRSKLAQFPDSLLWKEASALTSSENQRLFIDRDGSTFRHVHYYLYTSKLSFSSCAELNLLYEQALGLQLMPLLQTLDNLKEGRHHLRVRPADIPVAERASLNYWRTWKCISKPSDFPIKSPAFTGLHDKAPLGLMDTPLLDTEEEVHYCFLPLDLVAKYPSLVTEDNLLWLAETVALIECECSEFRFIVNFLRSHKILLPDNFSNIDVLEAEVEILEIPELTEAVRLYRMNMALQPALPGPKGSQLSLEQEEPSLGGCSRTSCPPLSPGKGGRTASVESVKPLYLMALGLLVKYPDSALGQLRIESTLDGSRLYITGNGALFQHVRNWLGTCRLPLTETISEVYELCAFLDKRDITYEPMKVALKTHLEPRTLLPVDVLSEEWTAEVTIYSPQQIIKLYVGSHWYATTLQTLMKYPELLSNTQRVYWIAYGQTLLIHGDGQMFRHILNFLRLGKLFLPSEFKEWPLFCQEVEEYHIPALSEALAQCEAYKSWTQEKESENEEAFPIRKLHVVTEGTGPMAEFSRDAKETTACMPVDFQECSDRTPWNKAKGNLTRSSQMEEAEQYTRTIQVSLCRNAKRGGNPSTYSHCSGLCANPRHWGGHSESPPKKKCTTINLTQKPDAKDPPVTPMQKLISLVREWDMVNCKQWEFQPLPASRSSSVEEASLHVPSGSEAAPQPGTSAAWKAHSITSEKDAGPQTGPGAGVKDKGPEPTFKPYFPTKRAITLKDWGKQRPKDRESPAPEQPLPNANGTDNPGAILKVAHPPVVGNDGSCMFFEDSIIYTTQMDNIKHTSLTASPQLREVTFLSFSLSWEEMFYAQKCHRFLTDIILDSIRQKDPKAITAKVVSLAYRLWTLNISPKQFVVDLLAIAGFKDDRHTQERLYSWVELTLPFARKYGRCVDLLIQRGLSRSVSYSVLGKYLHEG
As to B1, the binding entry is on record as “binds”.
